# Inconclusive means that the source gave no clear call. Such entries were picked first, then a sample of the others. For some assays here: A potency beside an inconclusive call is a rough fit, not a confirmed value. The source made the active and inactive calls. How the source made its calls: active means hit-call score of the fitted dose curve at least 0.9, where 1 is the maximum; inconclusive means response in the unintended direction; inactive means score below 0.9.
# Amino acid sequences for entries named in this document (tags omitted).
# UniProt P30542, whole entry, looked up: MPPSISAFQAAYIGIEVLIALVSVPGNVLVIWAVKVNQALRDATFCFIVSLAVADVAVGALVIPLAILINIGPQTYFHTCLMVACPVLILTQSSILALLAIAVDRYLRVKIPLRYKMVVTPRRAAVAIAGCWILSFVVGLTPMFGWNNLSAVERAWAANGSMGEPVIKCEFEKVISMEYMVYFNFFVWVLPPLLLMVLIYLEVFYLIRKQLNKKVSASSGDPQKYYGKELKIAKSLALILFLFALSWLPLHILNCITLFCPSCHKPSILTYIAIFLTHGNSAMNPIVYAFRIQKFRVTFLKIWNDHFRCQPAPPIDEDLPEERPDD
# UniProt P08913, whole entry, looked up: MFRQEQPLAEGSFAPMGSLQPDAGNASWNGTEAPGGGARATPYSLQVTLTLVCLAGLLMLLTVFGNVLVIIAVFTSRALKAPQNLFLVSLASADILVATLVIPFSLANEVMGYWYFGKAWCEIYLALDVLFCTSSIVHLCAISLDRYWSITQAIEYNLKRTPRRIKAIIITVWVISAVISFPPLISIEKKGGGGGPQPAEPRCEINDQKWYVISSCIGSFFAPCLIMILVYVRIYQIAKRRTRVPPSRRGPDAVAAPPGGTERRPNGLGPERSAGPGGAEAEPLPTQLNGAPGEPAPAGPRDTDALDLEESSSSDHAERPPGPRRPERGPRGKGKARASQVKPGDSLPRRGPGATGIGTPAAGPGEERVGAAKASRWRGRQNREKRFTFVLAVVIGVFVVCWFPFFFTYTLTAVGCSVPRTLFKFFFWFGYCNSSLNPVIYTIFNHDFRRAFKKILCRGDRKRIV
# UniProt P08588, whole entry, looked up: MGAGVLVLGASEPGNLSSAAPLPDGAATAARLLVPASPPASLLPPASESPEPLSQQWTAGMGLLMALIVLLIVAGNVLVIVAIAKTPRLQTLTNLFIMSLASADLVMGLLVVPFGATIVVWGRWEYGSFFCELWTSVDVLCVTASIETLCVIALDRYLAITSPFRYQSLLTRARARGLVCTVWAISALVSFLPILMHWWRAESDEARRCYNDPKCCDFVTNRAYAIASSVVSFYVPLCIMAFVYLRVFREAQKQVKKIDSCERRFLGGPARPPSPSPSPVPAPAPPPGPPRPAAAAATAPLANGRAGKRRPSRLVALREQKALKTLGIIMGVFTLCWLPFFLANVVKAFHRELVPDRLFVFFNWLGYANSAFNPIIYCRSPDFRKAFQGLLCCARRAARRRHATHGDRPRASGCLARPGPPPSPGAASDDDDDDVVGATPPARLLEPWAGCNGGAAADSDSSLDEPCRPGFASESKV
# Tests used:
# [1] = target: human Adenosine A1 Receptor (AdoRA1), ADORA1 (gene 134) (UniProt P30542); experiment: NVS_GPCR_hAdoRA1: NovaScreen (NVS) G Protein-Coupled Receptor Assay for human Adenosine A1 Receptor (AdoRA1) (AID 2283254)
# In short: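 Radioligand binding was run on human cortical membranes, cell-free, with filter-based scintillation counting 1 h after dosing. The primary screen was duplicate at 25 uM, followed by concentration series. Signal loss versus DMSO was fitted positive-direction.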
# [2] = target: human Adrenergic, Alpha 2A Receptor (Adra2A), ADRA2A (gene 150) (UniProt P08913); experiment: NVS_GPCR_hAdra2A: NovaScreen (NVS) G Protein-Coupled Receptor Assay for human Adrenergic, Alpha 2A Receptor (Adra2A) (AID 2283257)
# In short: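 Displacement of a specific radioligand from HT29 membrane protein was counted by filter scintillation after 1 h. Compounds were screened in duplicate at 25 uM, and actives were retested in concentration series. Fitting was positive-direction against DMSO.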
# [3] = target: human Adrenergic, Beta 1 Receptor (Adrb1), ADRB1 (gene 153) (UniProt P08588); experiment: NVS_GPCR_hAdrb1: NovaScreen (NVS) G Protein-Coupled Receptor Assay for human Adrenergic, Beta 1 Receptor (Adrb1) (AID 2283258)
# In short: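 Membranes/protein extracted from human neuroepithelioma cells, radioligand competition binding read by filtration and scintillation 2 h post-dose. Single 25 uM duplicate screen, then concentration-response follow-up; DMSO as negative control.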
compound,measurement,setting,value
O=S(=O)(O)c1ccc(N=Nc2c(O)ccc3cc(S(=O)(=O)O)ccc23)cc1,outcome,[1],inactive
same,outcome,[2],inactive
CCN(CC)c1ccc2c(C)cc(=O)oc2c1,outcome,[1],inactive
CCOC(=O)CCC(=O)OCC,AC50,[2],inconclusive: 25 µM
same,AC50,[3],inconclusive: 25 µM
